In this assay the test system is Salmonella enterica serovar Typhimurium SL1344. The assay is described as follows: normalized intracellular growth (luminescence, IQM-normalized) in RAW264.7 macrophages (fraction of plate interquartile mean); higher = more bacterial growth (less inhibition). The note with it: 10 µM.

Structures are written as SMILES. ± gives the standard deviation of the averaged measurements. In all, about 1,600 compounds were measured (“normalized intracellular growth (luminescence, IQM-normalized) in RAW264.7 macrophages”: median about 1, lowest 2% from about 0.43 on). Some of the results follow.

As for `CC(=O)N(CC(O)CO)c1c(I)c(C(=O)NCCO)c(I)c(C(=O)NCC(O)CO)c1I` (stereo not given), the normalized intracellular growth was 0.938 ± 0.063 (time point: T3 (3 h)) and 1.17 ± 0.091 (time point: Tfinal (~6 h)).
With `CN1CCN(CC(=O)N2c3ccccc3C(=O)Nc3cccnc32)CC1`, the normalized intracellular growth was 1.05 ± 0.044 (time point: T3 (3 h)) and 1.04 ± 0.095 (time point: Tfinal (~6 h)).
Take `COC(=O)Nc1nc2cc(Sc3ccccc3)ccc2[nH]1`: the normalized intracellular growth (time point: T3 (3 h)) stood at 0.906 ± 0.046 and the normalized intracellular growth (time point: Tfinal (~6 h)) worked out at 0.889 ± 0.035.
For `CC(=O)N(CC(O)CO)c1c(I)c(C(=O)NCC(O)CO)c(I)c(C(=O)NCC(O)CO)c1I` (stereo not given), the normalized intracellular growth reads like this: (time point: T3 (3 h)) 1.05 ± 0.014; (time point: Tfinal (~6 h)) 1.08 ± 0.18.
`CC(C)NCC(O)COc1ccc(CC(N)=O)cc1` (stereo not given) returned a normalized intracellular growth (time point: T3 (3 h)) of 0.998 ± 0.14 and a normalized intracellular growth (time point: Tfinal (~6 h)) of 1.06 ± 0.16.
Turning to `CC(C)Cn1cnc2c(N)nc3ccccc3c21`, the normalized intracellular growth is 0.98 ± 0.018 (time point: T3 (3 h)) and 1.02 ± 0.02 (time point: Tfinal (~6 h)).
For `CC(=O)OCC(=O)[C@@]1(O)[C@H](OC(C)=O)C[C@H]2[C@@H]3CCC4=CC(=O)C=C[C@]4(C)[C@@]3(F)[C@@H](O)C[C@@]21C` the same measures were 0.823 ± 0.07 and 1.2 ± 0.034.
Take `NC(=O)N1c2ccccc2CC(=O)c2ccccc21`: the normalized intracellular growth runs as follows: (time point: T3 (3 h)) 1.09 ± 0.075; (time point: Tfinal (~6 h)) 1.22 ± 0.13.
For the molecule `O=C(O)CCCC[C@@H]1CCSS1`, the normalized intracellular growth stood at 1.06 ± 0.032 (time point: T3 (3 h)) and 1.16 ± 0.12 (time point: Tfinal (~6 h)).
In turn, `Cc1cccc(Nc2ccncc2S(=O)(=O)NC(=O)NC(C)C)c1` returned a normalized intracellular growth (time point: T3 (3 h)) of 0.937 ± 0.054 and a normalized intracellular growth (time point: Tfinal (~6 h)) of 0.843 ± 0.1.
As to `O=C1N=C(O)NC1(c1ccccc1)c1ccccc1`, the normalized intracellular growth reads like this: (time point: T3 (3 h)) 0.986 ± 0.025; (time point: Tfinal (~6 h)) 1.05 ± 0.47.
For `CN(C)c1cc(NC(=O)CNC(C)(C)C)c(O)c2c1C[C@H]1C[C@H]3[C@H](N(C)C)C(O)=C(C(N)=O)C(=O)[C@@]3(O)C(O)=C1C2=O`, the normalized intracellular growth is 1.01 ± 0.05 (time point: T3 (3 h)) and 1.02 ± 0.18 (time point: Tfinal (~6 h)).
As to `CC[N+](CC)(CC(=O)Nc1c(C)cccc1C)Cc1ccccc1`, the normalized intracellular growth turned out to be 0.988 ± 0.034 (time point: T3 (3 h)) and 0.657 ± 0.16 (time point: Tfinal (~6 h)).
Consider `COc1cc(NS(=O)(=O)c2ccc(N)cc2)nc(OC)n1`, for which the normalized intracellular growth (time point: T3 (3 h)) worked out at 0.9915 ± 0.0078 and the normalized intracellular growth (time point: Tfinal (~6 h)) turned out to be 1.02 ± 0.081.
As to `CC1(C)O[C@@H]2[C@@H](CO[C@@]3(COS(N)(=O)=O)OC(C)(C)O[C@@H]23)O1`, the normalized intracellular growth is, setting by setting: (time point: T3 (3 h)) 1.02 ± 0.039; (time point: Tfinal (~6 h)) 1.1 ± 0.043.
Take `S=c1[nH]cnc2nc[nH]c12`: the normalized intracellular growth runs as follows: (time point: T3 (3 h)) 0.96 ± 0.029; (time point: Tfinal (~6 h)) 0.522 ± 0.081.
For the molecule `CCCCCCCCNC(C)C(O)c1ccc(SC(C)C)cc1` (stereo not given), the normalized intracellular growth amounted to 0.718 ± 0.18 (time point: T3 (3 h)) and 0.895 ± 0.057 (time point: Tfinal (~6 h)).
As for `C[C@H]1O[C@@H](O[C@H]2[C@@H](O)C[C@H](O[C@H]3[C@@H](O)C[C@H](O[C@H]4CC[C@@]5(C)[C@H](CC[C@@H]6[C@@H]5CC[C@]5(C)[C@@H](C7=CC(=O)OC7)CC[C@]65O)C4)O[C@@H]3C)O[C@@H]2C)C[C@H](O)[C@@H]1O`, the normalized intracellular growth is, setting by setting: (time point: T3 (3 h)) 1.03 ± 0.042; (time point: Tfinal (~6 h)) 1.08 ± 0.087.
For the molecule `CC(=O)CC(c1ccc([N+](=O)[O-])cc1)c1c(O)c2ccccc2oc1=O` (stereo not given), the normalized intracellular growth (time point: T3 (3 h)) came to 1.03 ± 0.023 and the normalized intracellular growth (time point: Tfinal (~6 h)) was determined as 1.02 ± 0.23.
Turning to `CC1(C)S[C@@H]2[C@H](NC(=O)COc3ccccc3)C(=O)N2[C@H]1C(=O)O`, the normalized intracellular growth stood at 0.797 ± 0.064 (time point: T3 (3 h)) and 1.19 ± 0.11 (time point: Tfinal (~6 h)).
The corresponding values for `CCCC(=O)O[C@]1(C(=O)CO)CC[C@H]2[C@@H]3CCC4=CC(=O)CC[C@]4(C)[C@H]3[C@@H](O)C[C@@]21C` are 1.03 ± 0.025 and 0.928 ± 0.28.
For `COc1ccc2c3c1O[C@H]1C[C@@H](O)C=C[C@@]31CCN(C)C2` the same measures were 1.02 ± 0.024 and 1.02 ± 0.044.
The corresponding values for `Cc1nnc(SCC2=C(C(=O)O)N3C(=O)[C@@H](NC(=O)Cn4cnnn4)[C@H]3SC2)s1` are 1.09 ± 0.087 and 1.2 ± 0.074.
For the molecule `CC(C)NC(=N)NC(=N)Nc1ccc(Cl)cc1`, the normalized intracellular growth was found to be 0.664 ± 0.018 (time point: T3 (3 h)) and 0.164 ± 0.01 (time point: Tfinal (~6 h)).
As to `CC1(C)[C@@H](O)CC[C@]2(C)[C@H]3C(=O)C=C4[C@@H]5C[C@@](C)(C(=O)O)CC[C@]5(C)CC[C@@]4(C)[C@]3(C)CC[C@@H]12`, the normalized intracellular growth stood at 0.954 ± 0.025 (time point: T3 (3 h)) and 0.762 ± 0.1 (time point: Tfinal (~6 h)).
With `C[C@]12CCC(=O)C=C1C=C[C@@H]1[C@@H]2CC[C@@]2(C)[C@H]1CC[C@@]21CCC(=O)O1`, the normalized intracellular growth runs as follows: (time point: T3 (3 h)) 1.03 ± 0.024; (time point: Tfinal (~6 h)) 1.29 ± 0.029.
The corresponding values for `COCCOC(=O)C1=C(C)NC(C)=C(C(=O)OC(C)C)C1c1cccc([N+](=O)[O-])c1` (stereo not given) are 0.964 ± 0.03 and 1.12 ± 0.06.
Consider `NCCS`, for which the normalized intracellular growth reads like this: (time point: T3 (3 h)) 1.13 ± 0.061; (time point: Tfinal (~6 h)) 0.9 ± 0.22.
As for `COc1c(C)c2c(c(O)c1C/C=C(\C)CCC(=O)OCCN1CCOCC1)C(=O)OC2`, the normalized intracellular growth is, setting by setting: (time point: T3 (3 h)) 1 ± 0.064; (time point: Tfinal (~6 h)) 1.42 ± 0.078.
Take `CN1C(C(=O)Nc2ccccn2)=C(O)c2ccccc2S1(=O)=O`: the normalized intracellular growth runs as follows: (time point: T3 (3 h)) 0.907 ± 0.24; (time point: Tfinal (~6 h)) 0.943 ± 0.079.
For the molecule `NC(=O)c1ccc[n+]([C@@H]2O[C@H](COP(=O)([O-])OP(=O)(O)OC[C@H]3O[C@@H](n4cnc5c(N)ncnc54)[C@H](O)[C@@H]3O)[C@@H](O)[C@H]2O)c1`, the normalized intracellular growth is, setting by setting: (time point: T3 (3 h)) 0.93 ± 0.04; (time point: Tfinal (~6 h)) 1.27 ± 0.076.
As for `NCC(=O)CCC(=O)O`, the normalized intracellular growth runs as follows: (time point: T3 (3 h)) 1.09 ± 0.029; (time point: Tfinal (~6 h)) 1.02 ± 0.042.
Consider `COc1ccc(CN(CCN(C)C)c2ncccn2)cc1`, for which the normalized intracellular growth is 1.1 ± 0.06 (time point: T3 (3 h)) and 1.1 ± 0.093 (time point: Tfinal (~6 h)).
For `O=C(O)/C=C/C(=O)O` the same measures were 1.14 ± 0.1 and 1.03 ± 0.16.
Consider `O=C(O)C[C@H](O)C[C@H](O)/C=C/c1c(C2CC2)nc2ccccc2c1-c1ccc(F)cc1`, for which the normalized intracellular growth turned out to be 1.2 ± 0.096 (time point: T3 (3 h)) and 1.17 ± 0.056 (time point: Tfinal (~6 h)).
Take `Cc1ccc(C)c(OCCCC(C)(C)C(=O)O)c1`: the normalized intracellular growth amounted to 0.941 ± 0.056 (time point: T3 (3 h)) and 0.968 ± 0.068 (time point: Tfinal (~6 h)).
On to `O=C(CCCN1CCC(O)(c2ccc(Cl)cc2)CC1)c1ccc(F)cc1`, for which the normalized intracellular growth reads like this: (time point: T3 (3 h)) 0.957 ± 0.056; (time point: Tfinal (~6 h)) 1 ± 0.085.
Consider `CN(C)CCN(Cc1ccc(Cl)cc1)c1ccccn1`, for which the normalized intracellular growth is 0.997 ± 0.03 (time point: T3 (3 h)) and 1.01 ± 0.11 (time point: Tfinal (~6 h)).
As for `CCCCCCCCCCOc1cc2c(O)c(C(=O)OCC)cnc2cc1OCC`, the normalized intracellular growth (time point: T3 (3 h)) came out at 0.942 ± 0.08 and the normalized intracellular growth (time point: Tfinal (~6 h)) is 0.973 ± 0.13.
Turning to `COc1ccc([C@@H]2Sc3ccccc3N(CCN(C)C)C(=O)[C@@H]2OC(C)=O)cc1`, the normalized intracellular growth turned out to be 1.019 ± 0.0067 (time point: T3 (3 h)) and 1.03 ± 0.044 (time point: Tfinal (~6 h)).
As for `CC(C[N+](C)(C)C)OC(N)=O` (stereo not given), the normalized intracellular growth was 1.01 ± 0.036 (time point: T3 (3 h)) and 0.908 ± 0.07 (time point: Tfinal (~6 h)).
`NCCc1cc[nH]n1`: the normalized intracellular growth reads like this: (time point: T3 (3 h)) 1.07 ± 0.017; (time point: Tfinal (~6 h)) 1.24 ± 0.14.
The corresponding values for `Cc1c(NC(C)C)c(=O)n(-c2ccccc2)n1C` are 0.98 ± 0.017 and 0.917 ± 0.22.
For `Cc1ccc(C(=O)C(C)CN2CCCCC2)cc1` (stereo not given) the same measures were 1.04 ± 0.017 and 0.872 ± 0.049.
In the case of `CNCC[C@@H](Oc1ccccc1C)c1ccccc1`, the normalized intracellular growth was determined as 1.01 ± 0.013 (time point: T3 (3 h)) and 0.902 ± 0.042 (time point: Tfinal (~6 h)).
Consider `O=C(CCCCC(=O)Nc1c(I)cc(I)c(C(=O)O)c1I)Nc1c(I)cc(I)c(C(=O)O)c1I`, for which the normalized intracellular growth was found to be 1.08 ± 0.034 (time point: T3 (3 h)) and 1.04 ± 0.026 (time point: Tfinal (~6 h)).
Consider `COCCCOc1ccnc(C[S+]([O-])c2nc3ccccc3[nH]2)c1C` (stereo not given), for which the normalized intracellular growth (time point: T3 (3 h)) came out at 1.03 ± 0.12 and the normalized intracellular growth (time point: Tfinal (~6 h)) stood at 1.01 ± 0.16.
As for `O=C(O)Cc1cc(I)c(Oc2ccc(O)c(I)c2)c(I)c1`, the normalized intracellular growth runs as follows: (time point: T3 (3 h)) 1.01 ± 0.017; (time point: Tfinal (~6 h)) 1.18 ± 0.038.
`COCCCOc1cc(C[C@@H](C[C@H](N)[C@@H](O)C[C@H](C(=O)NCC(C)(C)C(N)=O)C(C)C)C(C)C)ccc1OC`: the normalized intracellular growth (time point: T3 (3 h)) worked out at 0.926 ± 0.018 and the normalized intracellular growth (time point: Tfinal (~6 h)) came to 0.809 ± 0.29.
For the molecule `C#C[C@]1(OC(C)=O)CC[C@H]2[C@@H]3CCC4=CC(=O)CC[C@@H]4[C@H]3CC[C@@]21C`, the normalized intracellular growth runs as follows: (time point: T3 (3 h)) 1.03 ± 0.046; (time point: Tfinal (~6 h)) 0.972 ± 0.043.
As to `CCCCOC(=O)c1ccc(O)cc1`, the normalized intracellular growth runs as follows: (time point: T3 (3 h)) 1.01 ± 0.029; (time point: Tfinal (~6 h)) 0.989 ± 0.013.
For `CCCc1nc2c(C)cc(-c3nc4ccccc4n3C)cc2n1Cc1ccc(-c2ccccc2C(=O)O)cc1`, the normalized intracellular growth reads like this: (time point: T3 (3 h)) 0.999 ± 0.11; (time point: Tfinal (~6 h)) 0.597 ± 0.38.
Turning to `N=C(N)N1CCc2ccccc2C1`, the normalized intracellular growth (time point: T3 (3 h)) is 0.963 ± 0.068 and the normalized intracellular growth (time point: Tfinal (~6 h)) is 1.16 ± 0.083.
For `CC(=O)/N=c1/sc(S(N)(=O)=O)nn1C` the same measures were 1.09 ± 0.044 and 0.892 ± 0.37.
With `CC1=CC(=O)c2ccccc2C1=O`, the normalized intracellular growth runs as follows: (time point: T3 (3 h)) 1.22 ± 0.017; (time point: Tfinal (~6 h)) 1.21 ± 0.035.

The values above are taken from the supplement of paper PMC6331611.
